Results published in patent US20220354847A1, “THIAMINE THERAPY FOR FATTY LIVER ASSOCIATED DISEASES” (priority 2019, published 2022).

Tested on: lambs grown on the HC diet
Details: THC group; HC 5.16, LC 3.50

## Cc1ncc(C[n+]2csc(CCO)c2C)c(N)n1 [thiamine]
  group mean of daily energy intake (metabolizable energy): 5.29 mcal
